# Assay results: PubChem BioAssay AID2685 (National Center for Advancing Translational Sciences (NCATS), 2010)
# The whole screen tested about 320,000 compounds, of which about 2,100 (0.66%) were called active. Inconclusive means that the source gave no clear call. Such entries were picked first, then a sample of the others. Calls follow the shape of the dose curve; as a rule, active = well fitted inhibition curve with a large enough effect in the signal ratio, with a control signal flat (not every such curve was filed as active); inconclusive = small, poorly fitted or top-dose-only effect, or effect the other way, or a change in a side signal; inactive = flat fitted curve, though single readings scatter; the % refers to the signal ratio. Where the call is inconclusive, the potency comes from a doubtful curve fit.
# Assay: qHTS Assay for Lipid Storage Modulators in Drosophila S3 Cells
# Settings: BODIPY lipid droplet fluorescence, 18-24 h, cells fed with added oleic acid; lipid storage change, negative = inhibition: at 46.1 µM (top of the series) unless noted
# How it was run: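 Drosophila S3 cells loaded with oleic acid (400 uM, as added) and compounds at several concentrations; lipid droplets imaged by 488-nm laser-scanning cytometry, 500–530 nm intensity and object ratio to cell channel. Percent activity normalized to 20 uM Triacsin C.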
# % is scaled to controls: 0 for no effect and ±100 for the full control effect; potency is read from the fitted curve at half-maximal effect.
SMILES,"lipid storage change, negative = inhibition",Potency
Cc1ccc(-c2nc(C)sc2CC(=O)Nc2nnc(C)s2)cc1,inconclusive: 22.7%,–
Cc1cc(OCC(=O)NCc2cccnc2)ccc1[N+](=O)[O-],inconclusive: -33.9% [at 0.369 µM],–
Cc1ccc(S(=O)(=O)c2nnn3c2nc(Nc2cccc(C)c2)c2ccccc23)cc1,inconclusive: 18%,–
CN(C)C(CNC(=O)CNC(=O)c1ccc2ccccc2c1)c1ccccc1 (configuration not stated),inconclusive: -44%,–
O=C(N/C(=C\c1cccc(Br)c1)C(=O)N1CCCCC1)c1ccco1,inconclusive: 44.3%,–
COc1cccc(COC(=O)CSCC(=O)Nc2cccc(C)c2)c1OC,–,"inconclusive: 1.46 µM [activator, full curve]"
Cc1ccc(OCC(O)CNC(C)c2ccccc2)cc1C (configuration not stated),–,"inconclusive: 29.1 µM [rising, single point]"
C=CCn1cc(C(=O)NCCN(CC)CC)c(=O)c2cc(S(=O)(=O)N3CCCCCC3)ccc21,inconclusive: -57.2%,–
CCOc1ccccc1N1CC(C(=O)Nc2ccc3c(c2)OCCO3)CC1=O (configuration not stated),inconclusive: 5.09%,–
CC(=O)c1ccc(CCCCCCCCCC(=O)O)s1,inconclusive: -32.4%,–
S=c1[nH]nc(COc2ccccc2)n1/N=C/c1cccc(Cl)c1Cl,inconclusive: 348%,–
Cc1ccc(CNC(=O)CCS(=O)(=O)c2cc(Br)cc3c2N(C(=O)C2CC2)CC3)o1,inconclusive: 11.4%,–
CSc1ncccc1C(=O)NCC1CCCCC1,inconclusive: 17.7%,–
O=C(/C=C/c1ccc2c(c1)OCO2)N1CCCCC1,–,"inconclusive: 29.1 µM [activator, single point]"
Cn1c(-c2ccc3c(c2)OCO3)cnc1NCc1cccc(O)c1,–,"inconclusive: 0.092 µM [falling, full curve, poor fit]"
COc1ccc(CNC(=O)CN(Cc2ccc(Cl)cc2)C(=O)c2csnn2)cc1,inconclusive: -9.2%,–
CC(C)(O)C#Cc1ccc(C(=O)NC2CCCCC2)s1,inconclusive: 2.68%,–
CCOC(=O)CSc1nc(Cc2ccccc2)nc2ccccc12,inactive,–
Cc1ccc(-n2nnnc2CS(=O)(=O)c2ccccc2)c(C)c1,inconclusive: -0.582%,–
CC(=O)N(C(C)=O)N1C(=O)c2cccc3c(N4CCOCC4)ccc(c23)C1=O,–,"inconclusive: 2.91 µM [falling, partial curve]"
Cc1c(O)ccc(NC(=O)/C=C/c2ccccc2)c1C,inconclusive: 10.4%,–
Cn1c(SCc2cccc(Br)c2)nnc1-c1ccccn1,–,"inconclusive: 3.26 µM [rising, full curve, poor fit]"
COc1ccc(OCc2cccc(C(=O)Nc3cc(C)on3)c2)cc1,inconclusive: 3.2%,–
CCc1cccc(NC(=O)CSCc2nc3sc(C)c(C)c3c(=O)[nH]2)c1,–,"inconclusive: 18.4 µM [activator, single point]"
COc1cc(CC(=O)Nc2sc3c(c2C(N)=O)CCCC3)cc(OC)c1OC,–,"inconclusive: 16.4 µM [activator, single point]"
COc1ccc(NC(=O)CN(C)C(=O)CCCc2c[nH]c3ccccc23)cc1,inconclusive: -26.9%,–

SMILES,"lipid storage change, negative = inhibition",Potency
CCCC(=O)n1nc(-c2cccnc2)nc1N,inconclusive: -18.7%,–
COc1cccc(-n2c(C)nnc2SCC(=O)Nc2ccccc2N2CCOCC2)c1,–,"inconclusive: 0.651 µM [rising, full curve]"
O=C(O)CCn1cc(-c2ccc(Cl)cc2)nc1-c1ccncc1,inconclusive: 10.5%,–
O=C1C(=O)N(CCS(=O)(=O)c2ccccc2)c2ccc(F)cc21,inconclusive: 311%,–
S=c1nc(-c2ccccc2)[nH]c2ccccc12,inconclusive: -7.57%,–
COc1ccc(OC)c(-c2csc(N(Cc3ccco3)C(=O)c3cccs3)n2)c1,inconclusive: 3.07%,–
Cc1cc(Cl)c2oc(C(=O)N3CCCCC3CCN3CCCC3=O)c(C)c2c1 (configuration not stated),–,"inconclusive: 29.1 µM [activator, single point]"
O=C(c1ccc(CS(=O)(=O)Cc2ccc(Cl)cc2)o1)N1CCCC1,inconclusive: 20.7%,–
COc1cc2oc3ccccc3c2cc1N(CC(=O)N(C)C)S(=O)(=O)c1ccccc1,inconclusive: 13.8%,–
Cc1ccc(Sc2ncccc2/C=N/O)cc1,inconclusive: -34.5% [at 9.22 µM],–
CCC(=O)Nc1ccc(C(=O)CSc2nnc(-c3ccc(NS(=O)(=O)CC)cc3)o2)cc1OC,–,"inconclusive: 1.64 µM [falling, full curve, poor fit]"
O=C(NCCc1ccc(OC(F)F)cc1)C1CC(=O)N(c2ccc3c(c2)OCCO3)C1 (configuration not stated),inconclusive: -85.2%,–
O=C1NC(c2ccncc2)Nc2ccccc21 (configuration not stated),inconclusive: -34.5%,–
COc1ccc(C2(C)NC(=O)N(CC(=O)Nc3ccc(Br)cc3F)C2=O)cc1OC (configuration not stated),inconclusive: -0.817%,–
Cc1cccc(NS(=O)(=O)c2ccc(C(C)(C)C)cc2)n1,inconclusive: -6.93%,–
COc1ccc(-c2noc(N3CCC(C(=O)Nc4cc(OC)ccc4OC)CC3)n2)cc1,inconclusive: -12.9%,–
O=S(=O)(Nc1ccccc1)c1ccc(NS(=O)(=O)c2c(F)cccc2F)cc1,–,"inconclusive: 0.116 µM [falling, full curve, poor fit]"
O=C(Cn1cc(S(=O)(=O)Cc2ccccc2)c2ccccc21)Nc1ccccc1,inconclusive: 8.64%,–
O=C(NCc1ccccc1)c1ccc(NC(=O)c2ccco2)cc1,inconclusive: 55%,–
COCCNc1nnc(SCC(=O)Nc2cc(-c3ccccc3)nn2-c2ccccc2)s1,–,"inconclusive: 23.1 µM [falling, single point]"
Cc1cc(Nc2ccc3c(c2)OCCO3)c2cc(Cl)ccc2n1,inconclusive: -33%,–
CN(Cc1c(F)cccc1Cl)C(=O)CCc1c[nH]c2ccccc12,inconclusive: -8.75%,–
COCCn1c(SCC(=O)c2ccc3c(c2)OCCO3)nnc1-c1ccoc1C,–,"inconclusive: 0.146 µM [falling, full curve, poor fit]"
Cc1nn(Cc2ccccc2)c(C)c1CNC(=O)CN=C1NS(=O)(=O)c2ccccc21,inconclusive,–
O=c1c2cc3ccccc3n2cnn1Cc1ccccc1F,–,"inconclusive: 29.1 µM [falling, single point]"
CCc1ccc(NC(=O)CSc2nncn2-c2cccnc2)cc1,–,"inconclusive: 6.51 µM [activator, partial curve, poor fit]"

SMILES,"lipid storage change, negative = inhibition",Potency
CCOC(=O)C1Cn2c(nc3c(c2=O)C(C)(C)Cc2ccccc2-3)S1 (configuration not stated),inconclusive: 15%,–
O=C(COC(=O)C1CC1)Nc1ccccc1Sc1ccccc1,inconclusive: -62.8%,–
Cn1ncc(Br)c1C(=O)Nc1cccc(C(F)(F)F)c1,inconclusive: 26.7%,–
Cc1ccc2[nH]c(-c3cccc(F)c3)cc(=O)c2c1,–,"inconclusive: 18.4 µM [activator, single point]"
Cc1cccc(N(CC(=O)NCCc2ccccc2)C(=O)CCC(=O)Nc2ccccn2)c1C,inconclusive: -31.5%,–
Cc1c(Cl)cccc1NC(=O)c1ncn[nH]1,inconclusive: 13.8%,–
Cc1nn(C)c(Cl)c1/C=N/OC(=O)c1ccc(F)cc1,inconclusive: -32.2% [cytotoxic],–
COc1ccc(Nc2ncc(C(=O)O)c3ccccc23)cc1,inconclusive: 32.9%,–
O=C(c1c(F)cccc1F)N1CCCC(c2nc(-c3cccs3)no2)C1 (configuration not stated),–,"inconclusive: 23.1 µM [falling, single point]"
O=C(NC(Cc1ccccc1)C(=O)O)/C(=C\c1ccc(Cl)cc1)NC(=O)c1ccccc1 (configuration not stated),–,"inconclusive: 25.9 µM [falling, single point]"
Cn1c(CNc2ccc(F)cc2)nc2ccccc21,inconclusive: -63%,–
COc1ccc(CN(C)Cc2nc(Cc3cccc(F)c3)no2)c2cccnc12,–,"inconclusive: 20.6 µM [falling, single point]"
COc1ccc(N2CCN(C(=O)COC(=O)Cc3cccc(OC)c3)CC2)cc1,inconclusive,–
COc1ccc(NC(=S)NC(=O)c2cc3ccccc3o2)c(OC)c1,inconclusive: 21.8%,–
Cc1ccc(CCNC(=O)CS(=O)Cc2nc(-c3cccc(C)c3)oc2C)cc1 (configuration not stated),inconclusive: 2.2%,–
NC(=O)CSc1ccc(-c2ccc(F)cc2)nn1,inconclusive: -2.38%,–
Cc1nn(-c2ccccc2)c(C)c1C(=O)OCC(=O)Nc1ccccc1,inconclusive: 24.8%,–
CCn1c(SCc2ccc(F)cc2)nnc1C1CCN(S(=O)(=O)c2ccc(OC)cc2)CC1,inconclusive: 24.7%,–
CN(C)/C=C(\C(=O)c1cccc(Cl)c1)c1nnnn1-c1ccccc1,inconclusive: -4.88%,–
CCN(CC)S(=O)(=O)c1ccc(C)c(NC(=O)COC(=O)CN2C(=O)NC(C)(C)C2=O)c1,–,"inconclusive: 9.2 µM [activator, partial curve]"
CCOC(=O)Cc1nc2ccccc2n(CC#N)c1=O,inconclusive: 1.34%,–
Nc1nonc1C(=O)NCCNCc1cc(Br)ccc1OCc1ccc(F)cc1,–,"inconclusive: 29.1 µM [falling, single point]"
COc1ccc(NC(=O)c2sccc2C)c([N+](=O)[O-])c1,inconclusive: 1.77%,–
Cc1cn([C@H](C(=O)NCCCCCCCCCCC(=O)N2CCN(C(=O)OC(C)(C)C)CC2)[C@@H](C)O)nn1,inconclusive: -20.1%,–
CCOc1ccccc1N1CC(C(=O)NNC(=O)c2cc(OC)c(OC)c(OC)c2)CC1=O (configuration not stated),–,"inconclusive: 0.411 µM [activator, full curve]"

# Complete entries as entered above:
# Cc1cccc(NS(=O)(=O)c2ccc(C(C)(C)C)cc2)n1 as listed: lipid storage change, negative = inhibition: inconclusive: -6.93%
# Cc1ccc(OCC(O)CNC(C)c2ccccc2)cc1C (configuration not stated) as listed: Potency: inconclusive: 29.1 µM [rising, single point]
# Cn1c(CNc2ccc(F)cc2)nc2ccccc21 as listed: lipid storage change, negative = inhibition: inconclusive: -63%
